From PubChem BioAssay AID2685 (National Center for Advancing Translational Sciences (NCATS), 2010)
The list shows a part of the results. Shown are side measurements of this screen, not its main read-out; they come without a call. Most of these compounds were active or inconclusive in the main read-out, so they are no random draw. Potencies come from curve fits of mixed quality, noted in brackets.

Assay: qHTS Assay for Lipid Storage Modulators in Drosophila S3 Cells;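 as to cell number change: cells counted by Cell Tracker Red CMTPX staining in the red channel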
Conditions: BODIPY lipid droplet fluorescence, 18-24 h; for cell number change: measured here: cell count max response, cells fed with added oleic acid
How it was run: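 Laser-scanning cytometry quantifies lipid droplet accumulation (500–530 nm total intensity; droplet/cell object ratio) in oleic acid-fed (400 uM added) Drosophila S3 cells treated with a concentration series. 20 uM Triacsin C defined 100% inhibition.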

[1] = measured here: lipid fluorescence (Fed channel) AC50, cells fed with added oleic acid
[2] = measured here: cell number channel AC50, cells fed with added oleic acid

Row | Structure (SMILES) | AC50 [1] | cell number change [%] | AC50 [2]
1 | CCOc1ccc(OCCC(=O)N(CC)CC(=O)Nc2ccccc2C(F)(F)F)cc1 | 29.1 µM [rising, single point] | – | –
2 | COc1ccc(Br)cc1-c1nc(C)c(C(C)=O)n1O | – | -1.6 | –
3 | CC(C)Cn1nnc2c(=O)oc3ccccc3c21 | 0.00411 µM [falling, full curve, poor fit] | -0.862 | –
4 | O=C(NNC(=O)C(O)(c1ccccc1)c1ccccc1)C1CC1 | – | -28.2 | –
5 | Cc1cc(C)c(C)c(S(=O)(=O)NCc2ccc(C(=O)NCC3CCCO3)cc2)c1C (stereo not drawn) | 0.58 µM [falling, full curve] | -54.3 | 2.06 µM [falling, full curve]
6 | CSCCC1NC2(C(=O)Nc3c(Cl)cccc32)[C@@H]2C(=O)N(C3CCCC3)C(=O)[C@H]12 (stereo partly drawn) | 1.84 µM [rising, partial curve, poor fit] | 10.4 | –
7 | CC(=O)N1c2ccc(S(=O)(=O)N(C)CC(=O)Nc3ccccc3C)cc2CC1C (stereo not drawn) | – | 35.6 | 29.1 µM [rising, single point]
8 | Cc1cc(C(=O)OCC(=O)Nc2ccc(F)c(F)c2)c(C)o1 | – | 64.5 | 29.1 µM [rising, single point]
9 | CCOC(=O)C1(Cc2cccc(OC)c2)CCCN(C(=O)c2cc(C)oc2C)C1 (stereo not drawn) | 6.51 µM [rising, single point] | 25.4 | –
10 | COc1ccccc1-c1c(C)oc2c(CN3CCN(CCO)CC3)c(O)ccc2c1=O | – | -4.04 | –
11 | COc1ccccc1NC(=O)Cc1nc(CCl)cs1 | 23.1 µM [rising, partial curve] | 54.9 | 14.6 µM [rising, partial curve, poor fit]
12 | C/C(=N\NC(=O)c1ccccc1F)c1ccc2c(c1)Nc1ccccc1S2 | 16.4 µM [falling, partial curve, poor fit] | -30.8 | 14.6 µM [falling, partial curve]
13 | COc1cccc(C2c3[nH]c4ccccc4c3CCN2C(=O)c2ccccc2F)c1OC (stereo not drawn) | 20.6 µM [rising, single point] | -4.99 | –
14 | CCOc1ccccc1NC(=O)c1cnc2n(c1=O)CCS2 | – | -15 | –
15 | CN(C)S(=O)(=O)c1ccc(N2CCCC2)c(C(=O)OCC(=O)NC2(C#N)CCCCC2)c1 | 29.1 µM [rising, single point] | 27.1 | –
16 | Cc1ccc2nc(NC(=O)C(NS(=O)(=O)c3cccc4nsnc34)C(C)C)sc2c1 (stereo not drawn) | 7.31 µM [falling, partial curve, poor fit] | -29.1 | –
17 | CCOC(=O)C1=NN(C(=O)Nc2cccc(C(F)(F)F)c2)C2C(=O)N(c3cccc(C(F)(F)F)c3)C(=O)C12 (stereo not drawn) | 23.1 µM [falling, partial curve] | -72 | 23.1 µM [falling, partial curve]
18 | Cc1oc(C(=O)O)cc1COc1ccc2c3c(c(=O)oc2c1C)CCC3 | – | 0.0477 | –
19 | CCOc1ccc(OCCC(=O)N(CCC(C)C)c2c(N)n(Cc3ccccc3)c(=O)[nH]c2=O)cc1 | – | 8.79 | 0.0651 µM [falling, full curve, poor fit]
20 | Cc1ccnc(NC(=O)CCC(=O)N(CC(=O)NCCc2ccccc2)Cc2cccs2)c1 | 16.4 µM [falling, single point] | -48.4 | 18.4 µM [falling, single point]

Row | Structure (SMILES) | AC50 [1] | cell number change [%] | AC50 [2]
21 | CCC(O)(CC)C(=O)N=Nc1c(O)[nH]c2ccccc12 | 6.51 µM [falling, partial curve, poor fit] | 10.3 | 0.651 µM [falling, partial curve]
22 | O=c1[nH]c(N/N=C/c2cc3c(cc2[N+](=O)[O-])OCO3)nc2ccccc12 | 0.58 µM [rising, full curve, poor fit] | 17 | –
23 | O=C(Cc1ccccc1)Nc1nc(-c2ccc(F)c(F)c2)cs1 | – | 179 | 20.6 µM [rising, partial curve]
24 | Cc1ccc(C(C)C)c(OCCNC(=O)c2ccccc2O)c1 | 29.1 µM [falling, single point] | -10.1 | –
25 | COc1ccc(CNC(=O)c2ccccc2SC)cc1 | – | 14.8 | –
26 | Oc1ccc(CCNc2ncnc3ccc(Cl)cc23)cc1 | 3.66 µM [falling, full curve] | -8.38 | –
27 | Cc1cc2oc3c(c(=O)c2cc1C)C(c1cccc(Br)c1)N(Cc1ccco1)C3=O (stereo not drawn) | 1.3 µM [rising, full curve, poor fit] | 1.13 | –
28 | Cc1cccc(-c2sc(Nc3ccccc3)n[n+]2-c2ccc(F)cc2)c1 | 29.1 µM [rising, single point] | 32.7 | –
29 | COc1ccc(/C=N/NC(=O)CN2CCCC2)cc1 | 23.1 µM [falling, single point] | 11.3 | –
30 | COc1cc(OC)c(NC(=O)c2sc3ncn(CC(=O)N4CCN(c5ccccn5)CC4)c(=O)c3c2C)cc1Cl | 29.1 µM [rising, single point] | 0.943 | –
31 | O=C(COC(=O)c1cc(S(=O)(=O)N2CCOCC2)c(Cl)cc1Cl)NC1CC1 | 0.82 µM [rising, full curve, poor fit] | -19.7 | –
32 | CCCC1=Nc2cc(C(=O)NCCN3CCCC3)ccc2Sc2ccccc21 | – | 14.6 | –
33 | O=C(/C=C/c1cccc([N+](=O)[O-])c1)NCCSc1ccccc1 | – | -9.28 | –
34 | CC1=C(C(=O)OCC2CCCO2)C(c2ccc(F)cc2)NC(=O)N1 (stereo not drawn) | – | -3.24 | –
35 | CCCC(=O)OC(C(=O)Nc1cc(C(F)(F)F)ccc1Cl)c1ccccc1 (stereo not drawn) | 25.9 µM [rising, single point] | 3.68 | –
36 | Cc1cc(=O)oc2c(C)c(OC(C)C(=O)N3CC[C@@]4(O)CCCC[C@H]4C3)ccc12 (stereo partly drawn) | 0.00517 µM [falling, full curve, poor fit] | – | –
37 | CCC(C)N1CCN(S(=O)(=O)c2ccc3ccccc3c2)CC1 (stereo not drawn) | 14.6 µM [rising, single point] | 18.8 | –
38 | CCN1CCN(C(CNS(=O)(=O)c2cccs2)c2cccnc2)CC1 (stereo not drawn) | – | 6.01 | –
39 | O=S(=O)(NC1CC1)c1cccc(S(=O)(=O)N2CCCC2)c1 | – | 32.3 | –
40 | CC(C)(C)c1ccc(OC(=O)Nc2ccc(O)c(C(=O)O)c2)cc1 | 25.9 µM [rising, single point] | 0.49 | –

Quoted at random: 3 entries already listed, in no set order.
Row | Structure (SMILES) | AC50 [1] | cell number change [%] | AC50 [2]
36 | Cc1cc(=O)oc2c(C)c(OC(C)C(=O)N3CC[C@@]4(O)CCCC[C@H]4C3)ccc12 (stereo partly drawn) | 0.00517 µM [falling, full curve, poor fit] | – | –
32 | CCCC1=Nc2cc(C(=O)NCCN3CCCC3)ccc2Sc2ccccc21 | – | 14.6 | –
39 | O=S(=O)(NC1CC1)c1cccc(S(=O)(=O)N2CCCC2)c1 | – | 32.3 | –
